{"source": "PubChem BioAssay AID504764 (Drosophila RNAi Screening Center, 2011)", "screen": "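Genes whose knock-down alters Notch-dependent transcription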 (primary screen)", "system": "Drosophila Kc167 cells", "reagents": "long dsRNA against Drosophila genes", "time to read-out": "about 5 days (4 days dsRNA, then 24 h after transfection)", "challenge": "transfection of constitutively active membrane-tethered Notch lacking the extracellular domain, read 24 h later", "read-out": "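Firefly luciferase from an E(spl)m3 reporter with active Notch, plus control-promoter and uninduced reporter wells for normalisation; unnormalised counts, duplicate wells a and b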", "direction": "induced reporter light, run 1, well a and induced reporter light, run 1, well b: higher = more light from the Notch target reporter with active Notch; control promoter light, run 1, well a and control promoter light, run 1, well b: higher = more light from the viral control promoter (cell number, transfection, viability); uninduced reporter light, run 1, well a: higher = more light from the Notch target reporter without active Notch", "call rule": "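Hit if the duplicate-averaged log2 ratio of induced to control-promoter light gives a plate-wise z beyond ±2, or induced to uninduced beyond ±1.8; weak-control or discordant-duplicate wells dropped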", "meaning of the calls": "active = modifier hit (raised or lowered Notch signal); inactive = not a hit", "note": "The screen tested about 22,000 reagents; shown is a random part of those that have a named target and a result. Of all reagents, 403 (1.9%) were called active. 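Unnormalised raw counts per well; ratio z-scores behind the hit calls and whether each hit raises or lowers signal are not deposited.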 Not given: the amount of reagent."}
{"Target gene": "tank", "dsRNA": "DRSC00461", "induced reporter light, run 1, well a": 1.58e5, "induced reporter light, run 1, well b": 1.57e5, "control promoter light, run 1, well a": 1.21e5, "control promoter light, run 1, well b": 1.15e5, "uninduced reporter light, run 1, well a": 7940, "Call": "inactive"}
{"Target gene": "Osi16", "dsRNA": "DRSC12135", "induced reporter light, run 1, well a": 65315, "induced reporter light, run 1, well b": 97795, "control promoter light, run 1, well a": 67900, "control promoter light, run 1, well b": 68980, "uninduced reporter light, run 1, well a": 4055, "Call": "inactive"}
{"Target gene": "ZnT63C", "dsRNA": "DRSC08032", "induced reporter light, run 1, well a": 1.97e5, "induced reporter light, run 1, well b": 1.92e5, "control promoter light, run 1, well a": 2.26e5, "control promoter light, run 1, well b": 2.92e5, "uninduced reporter light, run 1, well a": 15220, "Call": "inactive"}
{"Target gene": "ZnT63C", "dsRNA": "DRSC08033", "induced reporter light, run 1, well a": 2.00e5, "induced reporter light, run 1, well b": 1.77e5, "control promoter light, run 1, well a": 1.69e5, "control promoter light, run 1, well b": 1.77e5, "uninduced reporter light, run 1, well a": 15035, "Call": "inactive"}
{"Target gene": "ZnT63C", "dsRNA": "DRSC08519", "induced reporter light, run 1, well a": 1.70e5, "induced reporter light, run 1, well b": 1.80e5, "control promoter light, run 1, well a": 1.22e5, "control promoter light, run 1, well b": 54685, "uninduced reporter light, run 1, well a": 16920, "Call": "inactive"}
{"Target gene": "ZnT63C", "dsRNA": "DRSC21989", "Call": "inactive"}
{"Target gene": "CG9166", "dsRNA": "DRSC07842", "induced reporter light, run 1, well a": 1.11e5, "induced reporter light, run 1, well b": 76765, "control promoter light, run 1, well a": 1.31e5, "control promoter light, run 1, well b": 1.08e5, "uninduced reporter light, run 1, well a": 5900, "Call": "inactive"}

The list goes on, starting with the last 2 of the part before.
{"Target gene": "ZnT63C", "dsRNA": "DRSC21989", "Call": "inactive"}
{"Target gene": "CG9166", "dsRNA": "DRSC07842", "induced reporter light, run 1, well a": 1.11e5, "induced reporter light, run 1, well b": 76765, "control promoter light, run 1, well a": 1.31e5, "control promoter light, run 1, well b": 1.08e5, "uninduced reporter light, run 1, well a": 5900, "Call": "inactive"}
{"Target gene": "Myo10A", "dsRNA": "DRSC19834", "induced reporter light, run 1, well a": 1.18e5, "induced reporter light, run 1, well b": 90845, "control promoter light, run 1, well a": 1.99e5, "control promoter light, run 1, well b": 1.22e5, "uninduced reporter light, run 1, well a": 7205, "Call": "inactive"}
{"Target gene": "Myo10A", "dsRNA": "DRSC19837", "induced reporter light, run 1, well a": 1.28e5, "induced reporter light, run 1, well b": 1.14e5, "control promoter light, run 1, well a": 1.89e5, "control promoter light, run 1, well b": 1.99e5, "uninduced reporter light, run 1, well a": 9230, "Call": "inactive"}
{"Target gene": "Nrx-1", "dsRNA": "DRSC16184", "induced reporter light, run 1, well a": 1.79e5, "induced reporter light, run 1, well b": 1.87e5, "control promoter light, run 1, well a": 2.44e5, "control promoter light, run 1, well b": 2.34e5, "uninduced reporter light, run 1, well a": 13580, "Call": "inactive"}
{"Target gene": "CG32793", "dsRNA": "DRSC18145", "induced reporter light, run 1, well a": 84755, "induced reporter light, run 1, well b": 80775, "control promoter light, run 1, well a": 1.25e5, "control promoter light, run 1, well b": 1.18e5, "uninduced reporter light, run 1, well a": 5510, "Call": "inactive"}
{"Target gene": "CG32793", "dsRNA": "DRSC18194", "induced reporter light, run 1, well a": 96045, "induced reporter light, run 1, well b": 1.08e5, "control promoter light, run 1, well a": 1.34e5, "control promoter light, run 1, well b": 1.63e5, "uninduced reporter light, run 1, well a": 7115, "Call": "inactive"}
